Source: publication PMC12040169 (PLOS Biology, 2025)
Some of the results follow.

system: T1, CTL2-GFP (C. trachomatis L2/434/Bu, GFP-expressing); set-up: species or system HeLa; Intracellular C. trachomatis growth in HeLa cells, bulk GFP fluorescence relative to DMSO; conditions: bulk GFP, single well; 28.5 h, 10 µM; inhibitor
T1 construct: L2/434/Bu, GFP-expressing

Compound | % of control remaining [%]
O=CN1CCc2c([nH]c3ccc(F)cc23)C12CCN(Cc1cccc(Oc3ccc(F)cc3)c1)CC2 [CBK040388] | 113.073
CCCn1c(CN2CCN(CCO)CC2)nc2ccccc21 [CBK269363] | 112.284
Cc1sc(NC(=S)NC(=O)Cc2cccc3ccccc23)c(C(N)=O)c1C [CBK266344] | 247.694
COc1ccc([N+](=O)[O-])cc1-c1ccc(-c2nc(-c3ccccc3)c(-c3ccccc3)[nH]2)o1 [CBK262497] | 124.045
Nc1ncc(-c2cccc(OC(F)(F)F)c2)nc1N1CCN(CCO)CC1 [CBK063435] | 139.534
Cc1cc(C)n(CCCN(C)Cc2c(C)nc3ccccn23)n1 [CBK281901] | 111.203
Brc1ccc(-n2c(SC/C=C/c3ccccc3)nnc2-c2ccncc2)cc1 [CBK266257] | 110.01
Cc1ccc2c(c1)CC(=O)NC21CCN(C(=O)C2CC2C(=O)O)CC1 (stereo not drawn) [CBK047258] | 93.9899
CNc1ccc(OC(=O)c2ccco2)cc1 [CBK010779] | 110.446
N#Cc1c(NC(=O)CN2CCc3ccccc3C2)sc2c1CCCC2 [CBK269126] | 105.95
Cc1cccc(-c2ccc3c(c2)C(=O)N2CC[C@H](NC(=O)N4CCOCC4)[C@H]2C(=O)N3)c1C [CBK289347] | 124.145
Cc1cc(COc2nc3ccccc3nc2N2CCCC2C(=O)OC(C)(C)C)no1 (stereo not drawn) [CBK173753] | 116.221
O=C(NCc1csc(-c2ccccc2)n1)C1CC=CCC1 (stereo not drawn) [CBK092348] | 120.311
CCNC(=O)c1ccc(-c2ccc(OC(F)(F)F)cc2)nc1 [CBK156230] | 118.577
O=C(Nc1cccnc1)C1c2ccccc2Oc2ccccc21 [CBK263129] | 109.133
c1ccc(Oc2cccc(OCCCCN3CCNCC3)c2)cc1 [CBK266027G] | 212.717
O=C(COc1ccccc1)Nc1ccc2n(c1=O)C[C@H]1C[C@@H]2CN(C(=O)c2ccccc2)C1 [CBK289079] | 148.644
COc1ccccc1CNC(=O)CCn1ccc2ccncc21 [CBK282229] | 137.385
c1ccc2nc(N3CCCC3)c(OCc3ccsc3)nc2c1 [CBK115819] | 115.16
COc1ccc(C)cc1S(=O)(=O)n1ccc2c(CN3CCC(N)CC3)cccc21 [CBK113312T] | 67.575
Cc1ccccc1OC(C)C(=O)NCCCN1CCOCC1 (stereo not drawn) [CBK268628] | 115.067
COC(=O)C1CC2CCC1(C)CC21NC(=O)c2ccccc2N1 (stereo not drawn) [CBK284440] | 78.5586
Cc1nn(C)c(Cl)c1S(=O)(=O)Nc1cccc(-c2cnco2)c1 [CBK067107] | 79.072
O=C(CN1CCOCC1)Nc1sc2c(c1C(=O)Nc1ccc(Cl)cc1)CCC2 [CBK265056] | 123.931
O=C(O)C1CCCN1C(=O)c1ccc(C#CC2(O)CCCCC2)cc1 (stereo not drawn) [CBK287022] | 120.766
CCCNS(=O)(=O)c1cc2c3c(c1)c(C)cc(=O)n3CCC2 [CBK307547] | 148.358

Three successive records out of the list so far, quoted:
Compound | % of control remaining [%]
O=CN1CCc2c([nH]c3ccc(F)cc23)C12CCN(Cc1cccc(Oc3ccc(F)cc3)c1)CC2 [CBK040388] | 113.073
CCCn1c(CN2CCN(CCO)CC2)nc2ccccc21 [CBK269363] | 112.284
Cc1sc(NC(=S)NC(=O)Cc2cccc3ccccc23)c(C(N)=O)c1C [CBK266344] | 247.694

The list continues.

Compound | % of control remaining [%]
CCN(CC)CC(O)Cn1c(-c2ccccc2Cl)nc2ccccc21 (stereo not drawn) [CBK262495] | 100
CCCCOc1ccc(S(=O)(=O)N2CCN(c3cccc(C)c3C)CC2)cc1 [CBK099293] | 92.7762
CCOC(=O)c1cnc(SC)nc1N1CCOCC1 [CBK018971] | 114.684
COc1ccc(/C(N)=N/OC(=O)C(C)Oc2ccc(Br)cc2)cc1OC (stereo not drawn) [CBK266807] | 129.103
O=C(NCCOc1ccc(-c2ccc(F)cc2)nn1)c1ccc(Br)o1 [CBK294429] | 150.576
CC(C)COc1ccc(-c2nn(-c3ccccc3)cc2CSC(=N)N)cc1 [CBK264278C] | 34.2042
O=C(c1cncnc1)N1CCN(C(=O)c2ccco2)CC1 [CBK144477] | 121.366
CN(C)c1ncccc1CNC(=O)c1ccccn1 [CBK297774] | 162.114
CN(CC1CCCOC1)C(=O)c1ncsc1Nc1ccccc1 (stereo not drawn) [CBK304250] | 136.945
Cc1ccc(C)c(-c2csc3c(=O)[nH]cnc23)c1 [CBK288556] | 119.224
O=c1/c(=C/c2ccncc2)sc2n1CN(c1cccc(F)c1)CN=2 [CBK264340] | 119.026
COc1ccc(CNC(=O)N(CCc2ccccc2)CC(C)(C)CN)cc1 [CBK000463C] | 82.2467
CC(C)Nc1cncc(OCc2cccnc2)n1 [CBK115879] | 136.12
O=C1CC(/C=C/c2ccccc2)Cc2[nH]c(=O)c(C(=O)O)cc21 (stereo not drawn) [CBK286933] | 132.429
Cc1nn(C)c(Cl)c1S(=O)(=O)Nc1cccnc1N1CCOCC1 [CBK062286] | 111.642
COc1ccc(C(=O)CSc2nnc(C(O)c3ccccc3)n2-c2ccccc2)cc1 (stereo not drawn) [CBK265104] | 115.015
COc1ccc([C@H]2CN(C(=O)c3ccccc3)[C@@H]3CCN(Cc4ccccc4)C[C@H]23)cc1 [CBK285592] | 93.518
O=C(CSc1nnc(-c2ccc(Cl)cc2Cl)o1)c1cc2ccccc2oc1=O [CBK268698] | 130.424
Cc1cc(Cl)ccc1OCC(O)CN1CCN(Cc2ccc3c(c2)OCO3)CC1 (stereo not drawn) [CBK074383] | 102.557
O=S(=O)(Nc1nnc(C(F)(F)F)s1)c1ccc(-c2ccccn2)s1 [CBK062016] | 100.42
Cc1ccc(S(=O)(=O)N(C)CC(=O)N(C)Cc2ccccc2)cc1 [CBK264201] | 133.237
Cn1c2c(c3ccccc31)CCOC21CCNCC1 [CBK081142] | 112.607
COc1cncc(-c2cc(Nc3cc(OC)c(OC)cc3C)ncn2)c1 [CBK090782] | 167.615
O=C(COc1ccc2ccccc2c1)Nc1ccc(CN2CCOCC2)cc1 [CBK265754] | 169.225
Cc1ccc2nc(-c3ccncc3)cc(C(=O)N3CCN(c4ncccn4)CC3)c2c1 [CBK267751] | 124.873
